Record: PubChem BioAssay AID652243 (Drosophila RNAi Screening Center, 2013)
In all, the deposit lists about 24,000 reagents; below is an unselected part of those that have a named target and a result. Of all reagents, 246 (1%) got an active call. 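Plates not normalised; calls are printed but the firefly/Renilla ratio behind them is not deposited; fold cut for lowering reported inconsistently.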 The raw values are shown without normalisation. A plus sign joins genes that one reagent is predicted to hit. Not given: the amount of reagent.

- Aim: 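Fly regulators of androgen-dependent reporter output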 (primary screen)
- System: Drosophila S2R+ cells
- Reagent: long dsRNA against Drosophila genes
- Time to read-out: 72 h (48 h, then 24 h hormone)
- Treatment: synthetic androgen R1881 at 10 nM for 24 h
- Read-out: 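Firefly light from an androgen-responsive reporter and Renilla control light per well, raw and unnormalised, for each of two replicates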
- Direction: firefly reporter light: higher = more light from androgen-responsive reporter; Renilla control light: higher = more constitutive control signal (cell number, transfection)
- Hit rule: 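Hit when the log firefly-to-Renilla ratio dropped or increased by a fixed fold versus the mean of GFP or LacZ controls across duplicate plates; lowering cut given as 1.5 and as 3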
- Calls: active = hit: reporter lowered or raised; inactive = no hit

The first 3 entries as a preview:
gene,amplicon,"firefly reporter light, replicate 1","firefly reporter light, replicate 2","Renilla control light, replicate 1","Renilla control light, replicate 2",Call
Ir10a,DRSC18891,1.03e6,7.33e5,7.70e5,3.34e5,inactive
Ir10a,DRSC19478,3.74e5,2.88e5,3.08e6,2.68e6,inactive
Ir10a,DRSC19479,3.30e5,3.62e5,2.69e6,2.65e6,inactive

The listing, from the first entry:
gene,amplicon,"firefly reporter light, replicate 1","firefly reporter light, replicate 2","Renilla control light, replicate 1","Renilla control light, replicate 2",Call
Ir10a,DRSC18891,1.03e6,7.33e5,7.70e5,3.34e5,inactive
Ir10a,DRSC19478,3.74e5,2.88e5,3.08e6,2.68e6,inactive
Ir10a,DRSC19479,3.30e5,3.62e5,2.69e6,2.65e6,inactive
dally,DRSC08954,3.35e5,2.59e5,4.91e5,3.62e5,inactive
dally,DRSC11338,4.30e5,1.15e6,9.37e5,2.23e6,inactive
CG10280,DRSC12133,82166,60320,1.76e6,1.54e6,inactive
CG10280,DRSC25571,9.28e5,1.23e6,1.29e6,1.26e6,inactive
Ir7c,DRSC18007,2.36e5,2.60e5,2.04e6,2.32e6,inactive
ArgRS-m,DRSC14186,2.05e5,2.62e5,1.73e6,1.63e6,inactive
CG5167,DRSC15728,1.78e5,1.61e5,2.37e6,2.39e6,inactive
inaF-A,DRSC19660,4.53e5,5.08e5,3.67e6,3.07e6,inactive
Prx6c,DRSC06080,3.40e5,2.30e5,1.73e6,1.65e6,inactive
Prx6c,DRSC28598,3.38e5,4.19e5,1.34e6,1.21e6,inactive
Ir76a + CG14102,DRSC38737,8.90e5,7.01e5,2.26e6,2.30e6,inactive
l(2)05287,DRSC02151,1.09e6,9.36e5,3.15e6,3.16e6,inactive
l(2)05287,DRSC02152,1.12e5,1.28e5,1.44e6,1.30e6,inactive
l(2)05287,DRSC26660,2.71e5,1.65e5,6.74e5,5.88e5,inactive
CSN3,DRSC11859,89890,96665,1.16e6,1.27e6,inactive
CSN3,DRSC25919,4.23e5,5.38e5,9.71e5,8.56e5,inactive
snRNA:U3 (retired record),DRSC37894,7.21e5,8.29e5,1.41e6,1.48e6,inactive
CG12581,DRSC12206,64417,69461,4.77e5,4.77e5,inactive
CG12581,DRSC12207,58699,59354,1.57e6,7.83e5,inactive
hoka,DRSC08313,1.34e5,1.44e5,1.33e6,2.03e6,inactive
LysE,DRSC08675,1.04e5,1.44e5,1.29e6,1.64e6,inactive
Anp,DRSC14112,4.06e5,3.96e5,2.66e6,3.42e6,inactive
Or94b,DRSC16773,2.61e5,2.42e5,2.42e6,2.31e6,inactive
Or94b,DRSC27188,2.57e5,2.50e5,7.41e5,7.30e5,inactive
CR41501,DRSC38861,8.03e5,7.88e5,2.18e6,1.85e6,inactive
Dso1,DRSC21815,3.64e5,4.30e5,3.19e6,4.23e6,inactive
Dso1,DRSC29771,5.33e5,2.68e5,1.60e6,1.23e6,inactive
sl,DRSC20377,73553,73806,4.63e5,5.66e5,inactive
sl,DRSC21782,3.16e5,3.56e5,1.27e6,2.03e6,inactive
cindr,DRSC14126,63302,72093,6.83e5,4.88e5,inactive
Pdzd8,DRSC19355,1.98e5,2.28e5,3.74e6,3.93e6,active
Pdzd8,DRSC23702,6.88e5,7.27e5,1.04e6,1.04e6,inactive
CG14969,DRSC08428,9.27e5,1.06e6,2.23e6,2.15e6,inactive
CG15880,DRSC00474,1.42e5,1.25e5,9.22e5,9.78e5,inactive
SF1,DRSC16844,1.38e5,1.23e5,2.29e6,2.19e6,inactive
CG32643,DRSC18962,7.05e5,4.73e5,9.51e5,3.65e5,inactive
CG9449,DRSC11073,1.59e5,1.52e5,2.32e6,1.99e6,inactive
CG9449,DRSC25691,8.73e5,8.80e5,1.06e6,1.29e6,inactive
